Reference: PubChem BioAssay AID504842 (National Center for Advancing Translational Sciences (NCATS), 2011)
The campaign covered roughly 330,000 compounds. About 100 (0.03%) were called active. The shares of active, inactive and inconclusive entries below differ from those in the screen. Calls follow the shape of the dose curve; as a rule, active = well fitted inhibition curve with a large enough effect; inconclusive = small, poorly fitted or top-dose-only effect; inactive = flat fitted curve, though single readings scatter. Potencies beside an inconclusive call are fits to weak or partial responses and may not hold up.

tested on: Chaperonin Mm-Cpn (Methanococcus maripaludis); assay: Inhibitors of TCP-1 ring complex (TRiC) of Methanococcus maripaludis (MmCpn): qHTS; details: purified Mm-Cpn ATPase, ADP Transcreener TR-FRET; also: nearly all actives have a fitted effect of over 80% in size;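 as to Potency: enzyme at 25 nM with ATP substrate at 10 µM during the reaction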
Procedure, shortened: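 Measured: ADP formation by purified Mm-CPN. Conditions: 25 nM protein, 10 uM ATP, Tris pH 7.4 with Mg2+, K+ and DTT, 37°C for 30 min. Detection: Transcreener HTRF after 30 min at room temperature.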
Potency is read from the fitted curve at half-maximal effect.

| SMILES | Potency |
| --- | --- |
| CCCCCn1c(CN2CCN(CCO)CC2)nc2c1c(=O)n(C)c(=O)n2C | inconclusive: 14.1 µM [inhibitor, single point] |
| O=C(CC1C(=O)NCCN1C(=O)c1ccc(F)cc1)OCc1ccccc1 (centres undefined) | inconclusive: 14.1 µM [inhibitor, single point] |
| COc1ccc(C(=O)C2CCCN(C(=O)C3CCOCC3)C2)cc1OC (centres undefined) | inconclusive: 22.4 µM [inhibitor, single point] |
| CCCOc1ccc(C2=CSC3=NCCN23)cc1[N+](=O)[O-] | inconclusive: 100 µM [inhibitor, partial curve, poor fit] |
| Cc1c(C)n(C)c2ccc(C(=O)NCCc3ccco3)cc12 | inconclusive: 79.4 µM [inhibitor, single point] |
| CC(=O)N(/N=C1\Sc2ccccc2C1=O)c1cccc(C)c1 | inconclusive: 56.2 µM [inhibitor, single point] |
| COc1ccc(S(=O)(=O)N[C@@H](C)C(=O)OCC(=O)Nc2cc3oc4ccccc4c3cc2OC)cc1 | inconclusive: 100 µM [inhibitor, single point] |
| CCOC(=O)Cn1cnc2c(nnn2-c2ccc(C)cc2)c1=O | inconclusive: 10 µM [inhibitor, single point] |
| C#CCn1c(=NC(=O)c2cc(-c3cccs3)nc3ccccc23)sc2cc(S(N)(=O)=O)ccc21 | inconclusive: 25.1 µM [inhibitor, partial curve, poor fit] |
| COc1ccc(-c2csc3ncnc(N4CCN(S(=O)(=O)c5ccc(C)cc5)CC4)c23)cc1 | inconclusive: 44.7 µM [inhibitor, single point] |
| COc1ccc(/C=C/C(=O)N(Cc2cccs2)C2CCS(=O)(=O)C2)cc1 (centres undefined) | inconclusive: 112 µM [inhibitor, single point] |
| CC(=O)OCC1=C(C(=O)O)N2C(=O)[C@@H](NC(=O)CSc3ccncc3)[C@H]2SC1 | inconclusive: 20 µM [inhibitor, single point] |
| Cc1cccc(C(=O)CC(=O)c2cc(Cl)ccc2O)c1 | inconclusive: 282 µM [inhibitor, partial curve, poor fit] |
| COc1ccccc1NC(=O)CSc1nccc(-c2ccco2)n1 | inactive |
| CCCCC1C2=C(CCCC2=O)OC2=C1C(=O)CCC2 | inconclusive: 100 µM [inhibitor, single point] |
| COC(=O)CNc1n[nH]c(=S)[nH]c1=O | inconclusive: 25.1 µM [inhibitor, partial curve, poor fit] |
| Cc1ccc(CSC2=Nc3sccc3C3=NC(=O)CN23)cc1 | inconclusive: 224 µM [inhibitor, partial curve, poor fit] |
| CC[n+]1ccc(/C=C/c2ccc(N(C)C)cc2)c2ccccc21 | inconclusive: 25.1 µM [inhibitor, partial curve, poor fit] |
| Cc1cccc(C2=NN(c3ccccc3)[C@@H](C(=O)N3CCOC3=O)[C@@H]2c2ccc(F)cc2)c1 | active: 31.6 µM |
| CCc1ccc(CNc2ccc3c(c2)ncn3CC)cc1 | inconclusive: 17.8 µM [inhibitor, single point] |
| CCOC(=O)c1[nH]c2ccc(OC)cc2c1NC(=S)N1CCN(c2ccccc2)CC1 | inconclusive: 224 µM [inhibitor, partial curve, poor fit] |
| O=C(CCCCCN1C(=O)c2ccccc2C1=O)Nc1nccs1 | inconclusive: 17.8 µM [inhibitor, single point] |

| SMILES | Potency |
| --- | --- |
| Cc1c(C(=O)Nc2ccncc2)sc2nc(-c3ccccc3)cn12 | inconclusive: 50.1 µM [inhibitor, partial curve, poor fit] |
| C=CCn1c(SCC(=O)O)nnc1-c1ccc(C(C)(C)C)cc1 | inactive |
| COC(=O)c1c(-c2ccc(S(C)(=O)=O)cc2)sc2cc(OC)ccc12 | active: 35.5 µM |
| O=C(Cn1c(=O)oc2ccccc21)N1CCOCC1 | inconclusive: 89.1 µM [inhibitor, single point] |
| N#Cc1c(N2CCOCC2)nsc1-c1ccc(C(F)(F)F)cc1 | inconclusive: 112 µM [inhibitor, single point] |
| Cc1cccc(OCc2n[nH]c(=S)n2-c2ccccc2)c1 | inconclusive: 89.1 µM [inhibitor, single point] |
| Cc1ccc(CNC(=O)c2ccc(N3CCC4(CC3)CC(c3cccc(Br)c3)=NO4)c(NC(=O)c3c(Cl)cccc3Cl)c2)cc1 | inconclusive: 100 µM [inhibitor, single point] |
| O=C(NCC(c1ccco1)N1CCc2ccccc2C1)C(=O)Nc1ccc(F)cc1F (centres undefined) | inconclusive: 56.2 µM [inhibitor, single point] |
| COc1ccccc1Nc1nc(-c2sc(NC(=O)c3ccco3)nc2C)cs1 | inconclusive: 70.8 µM [inhibitor, single point] |
| Cc1nn(Cc2ccc(C(=O)Nc3ccccc3F)cc2)c(C)c1Cl | inconclusive: 100 µM [inhibitor, single point] |
| O=C(CCCN1C(=O)c2ccccc2C1=O)Nc1nccs1 | inactive |
| Cc1onc2c(=O)n(-c3ccccc3)nc(-c3ccccc3)c12 | inconclusive: 17.8 µM [inhibitor, single point] |
| O=C(O)CN1C(=O)/C(=C\c2cccc(OCc3ccccc3F)c2)SC1=S | inactive |
| CC[C@@]12C(=O)N(c3ccc(C)cc3)C(=O)N1[C@H](c1cccc(C)c1)[C@@H]1C(=O)N(Cc3ccccc3)C(=O)[C@@H]12 | inactive |
| COc1ccc(CNC(=O)COc2cccnc2[N+](=O)[O-])cc1 | inconclusive: 56.2 µM [inhibitor, single point] |
| CCC/C(C#Cc1ccsc1)=C1/c2ccccc2C(=O)N1c1ccccc1 | inconclusive: 100 µM [inhibitor, single point] |
| CN1CCC(N(C)S(=O)(=O)c2ccc(NC(=O)COc3ccc([N+](=O)[O-])cc3)cc2)CC1 | inconclusive: 22.4 µM [inhibitor, single point] |
| FC(F)(F)c1nnc(-c2ccccc2)nc1Sc1ccc(Cl)cc1 | inactive |
| Cc1ccc(Nc2nc(N)nc(CSc3ncccn3)n2)cc1 | inconclusive: 25.1 µM [inhibitor, single point] |
| Cc1nn(S(=O)(=O)c2ccc(F)cc2)c(C)c1S(=O)(=O)N1CCOCC1 | inactive |
| O=C(NCC1CCCO1)C1CCCN1C(=O)Nc1ccc(Cl)c(Cl)c1 (centres undefined) | inconclusive: 100 µM [inhibitor, partial curve, poor fit] |
| CN1N=C2c3ccccc3CCC2C1c1ccc(F)cc1 (centres undefined) | inactive |

| SMILES | Potency |
| --- | --- |
| CCc1ccc(Nc2n[n+](-c3ccccc3)c(-c3cccc(Cl)c3Cl)s2)cc1 | active: 56.2 µM |
| O=C(N=c1ccn(-c2nc3ccccc3nc2NS(=O)(=O)c2ccccc2)cc1)c1ccccc1Cl | inconclusive: 89.1 µM [inhibitor, partial curve] |
| COc1ccc(COc2cc(-c3cccc(OC)c3)nc3ccc(NC(=O)c4ccc(N(C)C)cc4)cc23)cc1 | inconclusive: 28.2 µM [inhibitor, partial curve, poor fit] |
| COc1ccc(OCC(=O)O/N=C(\N)c2ccc(OC)c(OC)c2)cc1 | inactive |
| COc1ccc(NC(=O)N(C)C[C@H]2Oc3ccc(NC(=O)Nc4ccc(C(F)(F)F)cc4)cc3C(=O)N([C@H](C)CO)C[C@@H]2C)cc1 | inactive |
| C=CCn1cc(C(=O)NCCCOC)c(=O)c2cc(S(=O)(=O)N(CC)CC)ccc21 | inconclusive: 63.1 µM [inhibitor, single point] |
| Cc1nc2[nH]c(=S)n(C)c(=O)c2nc1C | inactive |
| Cc1ccccc1OCCNc1cc(N2CCN(CCO)CC2)ccc1[N+](=O)[O-] | inconclusive: 100 µM [inhibitor, single point] |
| COc1cccc(OCC(=O)NNC(=O)CCc2ccccc2)c1 | inconclusive: 11.2 µM [inhibitor, single point] |
| CS(=O)(=O)c1sc2nc(-c3cccs3)cc(-c3ccccc3)c2c1N | inconclusive: 112 µM [inhibitor, partial curve, poor fit] |
| O=[N+]([O-])c1cc(Cc2ccccc2)cc(C=Nc2ccc(N3CCOCC3)cc2)c1O | inconclusive: 1410 µM [inhibitor, partial curve, poor fit] |
| O=C(NCCCN1CCOCC1)c1ccccc1N1C(=O)[C@@H]2Cc3c([nH]c4ccccc34)C(c3ccc(F)cc3)N2C1=O (some centres undefined) | inconclusive: 25.1 µM [inhibitor, single point] |
| O=C(CSc1nnc(NC(=O)c2ccc(F)cc2F)s1)NC1CCCC1 | inconclusive: 56.2 µM [inhibitor, single point] |
| CCOC(=O)c1c(CNCc2ccccc2F)c2sc(C)cc2n1C | inactive |
| COc1cc(-c2nnc(SCC(=O)c3cc(C)n(CC4CCCO4)c3C)o2)cc(OC)c1OC (centres undefined) | inactive |
| CC(=O)N1N=C(N)SC1(C)C | inconclusive: 10 µM [inhibitor, single point] |
| CCN(CC)S(=O)(=O)c1ccc(C(=O)OCC(=O)NCc2ccco2)cc1 | inconclusive: 89.1 µM [inhibitor, single point] |
| O=C(c1cc(S(=O)(=O)N2CCOCC2)c(Cl)cc1Cl)N1CCCCC1 | inconclusive: 79.4 µM [inhibitor, single point] |
| COc1cc(Cl)c(CN2CCCC(CO)(Cc3ccccc3F)C2)cc1OC (centres undefined) | inconclusive: 50.1 µM [inhibitor, single point] |
| COc1ccc(-c2cc(C(N)=O)nc(N3CCCCCC3)n2)cc1 | inconclusive: 2240 µM [inhibitor, partial curve, poor fit] |

Retrieved by structure from the list above:

| SMILES | Potency |
| --- | --- |
| COc1cccc(OCC(=O)NNC(=O)CCc2ccccc2)c1 | inconclusive: 11.2 µM [inhibitor, single point] |
| COc1ccc(C(=O)C2CCCN(C(=O)C3CCOCC3)C2)cc1OC (centres undefined) | inconclusive: 22.4 µM [inhibitor, single point] |
